Test system: primary CLL samples (PBMC from CLL patients), HLA class I ligands
Test: HLA class I ligandome analysis by LC-MS/MS (frequency of HLA restricted presentation)
Set-up: species or system human
Settings: for Number of positive CLLs: CLL patient HLA class I ligandomes (n = 30); for Number of positive CLLs (frequency [%]): source protein (LiTAA) representation in CLL patient HLA class I ligandomes (n = 30)

B1: methyltransferase like 7A (protein, UniProt Q9H8H3 30-244, looked up)
Thiol S-methyltransferase …: WICKKWFPYFLVRFTVIYNEQMASKKRELFSNLQEFAGPSGKLSLLEVGCGTGANFKFYPPGCRVTCIDPNPNFEKFLIKSIAENRHLQFERFVVAAGENMHQVADGSVDVVVCTLVLCSVKNQERILREVCRVLRPGGAFYFMEHVAAECSTWNYFWQQVLDPAWHLLFDGCNLTRESWKALERASFSKLKLQHIQAPLSWELVRPHIYGYAVK
notes: LiTAA source protein
B1 was tested, and the “Number of positive CLLs” value was 7 and the “Number of positive CLLs (frequency [%])” value was 23.3%.

B2: hematopoietic SH2 domain containing (protein, UniProt Q96JZ2 1-352, looked up)
Hematopoietic SH2 …: MTEAGKLPLPLPPRLDWFVHTQMGQLAQDGVPEWFHGAISREDAENLLESQPLGSFLIRVSHSHVGYTLSYKAQSSCCHFMVKLLDDGTFMIPGEKVAHTSLDALVTFHQQKPIEPRRELLTQPCRQKDPANVDYEDLFLYSNAVAEEAACPVSAPEEASPKPVLCHQSKERKPSAEMNRITTKEATSSCPPKSPLGETRQKLWRSLKMLPERGQRVRQQLKSHLATVNLSSLLDVRRSTVISGPGTGKGSQDHSGDPTSGDRGYTDPCVATSLKSPSQPQAPKDRKVPTRKAERSVSCIEVTPGDRSWHQMVVRALSSQESKPEHQGLAEPENDQLPEEYQQPPPFAPGYC
notes: LiTAA source protein
In the case of B2, the “Number of positive CLLs” value is reported as 7 and the “Number of positive CLLs (frequency [%])” value is reported as 23.3%.

B3: ribonucleotide reductase M2 B (TP53 inducible) (protein, UniProt Q7LG56 1-351, looked up)
Ribonucleoside-diphosphate …: MGDPERPEAAGLDQDERSSSDTNESEIKSNEEPLLRKSSRRFVIFPIQYPDIWKMYKQAQASFWTAEEVDLSKDLPHWNKLKADEKYFISHILAFFAASDGIVNENLVERFSQEVQVPEARCFYGFQILIENVHSEMYSLLIDTYIRDPKKREFLFNAIETMPYVKKKADWALRWIADRKSTFGERVVAFAAVEGVFFSGSFAAIFWLKKRGLMPGLTFSNELISRDEGLHCDFACLMFQYLVNKPSEERVREIIVDAVKIEQEFLTEALPVGLIGMNCILMKQYIEFVADRLLVELGFSKVFQAENPFDFMENISLEGKTNFFEKRVSEYQRFAVMAETTDNVFTLDADF
notes: LiTAA source protein
B3 was tested, and the “Number of positive CLLs” value was 7 and the “Number of positive CLLs (frequency [%])” value was 23.3%.

B4: zinc finger CCCH-type containing 12D (protein, UniProt A2A288 1-527, looked up)
Probable ribonuclease ZC3H12D: MEHPSKMEFFQKLGYDREDVLRVLGKLGEGALVNDVLQELIRTGSRPGALEHPAAPRLVPRGSCGVPDSAQRGPGTALEEDFRTLASSLRPIVIDGSNVAMSHGNKETFSCRGIKLAVDWFRDRGHTYIKVFVPSWRKDPPRADTPIREQHVLAELERQAVLVYTPSRKVHGKRLVCYDDRYIVKVAYEQDGVIVSNDNYRDLQSENPEWKWFIEQRLLMFSFVNDRFMPPDDPLGRHGPSLSNFLSRKPKPPEPSWQHCPYGKKCTYGIKCKFYHPERPHHAQLAVADELRAKTGARPGAGAEEQRPPRAPGGSAGARAAPREPFAHSLPPARGSPDLAALRGSFSRLAFSDDLGPLGPPLPVPACSLTPRLGGPDWVSAGGRVPGPLSLPSPESQFSPGDLPPPPGLQLQPRGEHRPRDLHGDLLSPRRPPDDPWARPPRSDRFPGRSVWAEPAWGDGATGGLSVYATEDDEGDARARARIALYSVFPRDQVDRVMAAFPELSDLARLILLVQRCQSAGAPLGKP
notes: LiTAA source protein
With B4 the “Number of positive CLLs” value was 6 and the “Number of positive CLLs (frequency [%])” value was 20.0%.

B5: cyclin-dependent kinase 14 (protein, UniProt O94921 1-469, looked up)
Cyclin-dependent kinase 14: MCDLIEPQPAEKIGKMKKLRRTLSESFSRIALKKDDTTFDEICVTKMSTRNCQGMDSVIKPLDTIPEDKKVRVQRTQSTFDPFEKPANQVKRVHSENNACINFKTSSTGKESPKVRRHSSPSSPTSPKFGKADSYEKLEKLGEGSYATVYKGKSKVNGKLVALKVIRLQEEEGTPFTAIREASLLKGLKHANIVLLHDIIHTKETLTLVFEYVHTDLCQYMDKHPGGLHPDNVKLFLFQLLRGLSYIHQRYILHRDLKPQNLLISDTGELKLADFGLARAKSVPSHTYSNEVVTLWYRPPDVLLGSTEYSTCLDMWGVGCIFVEMIQGVAAFPGMKDIQDQLERIFLVLGTPNEDTWPGVHSLPHFKPERFTLYSSKNLRQAWNKLSYVNHAEDLASKLLQCSPKNRLSAQAALSHEYFSDLPPRLWELTDMSSIFTVPNVRLQPEAGESMRAFGKNNSYGKSLSNSKH
notes: LiTAA source protein
B5 was tested, and the “Number of positive CLLs” value was 12 and the “Number of positive CLLs (frequency [%])” value was 40.0%.

B6: NLR family, pyrin domain containing 2 (protein, UniProt Q9NX02 1-1062, looked up)
NACHT, LRR and PYD …: MVSSAQMGFNLQALLEQLSQDELSKFKYLITTFSLAHELQKIPHKEVDKADGKQLVEILTTHCDSYWVEMASLQVFEKMHRMDLSERAKDEVREAALKSFNKRKPLSLGITRKERPPLDVDEMLERFKTEAQAFTETKGNVICLGKEVFKGKKPDKDNRCRYILKTKFREMWKSWPGDSKEVQVMAERYKMLIPFSNPRVLPGPFSYTVVLYGPAGLGKTTLAQKLMLDWAEDNLIHKFKYAFYLSCRELSRLGPCSFAELVFRDWPELQDDIPHILAQARKILFVIDGFDELGAAPGALIEDICGDWEKKKPVPVLLGSLLNRVMLPKAALLVTTRPRALRDLRILAEEPIYIRVEGFLEEDRRAYFLRHFGDEDQAMRAFELMRSNAALFQLGSAPAVCWIVCTTLKLQMEKGEDPVPTCLTRTGLFLRFLCSRFPQGAQLRGALRTLSLLAAQGLWAQTSVLHREDLERLGVQESDLRLFLDGDILRQDRVSKGCYSFIHLSFQQFLTALFYTLEKEEEEDRDGHTWDIGDVQKLLSGVERLRNPDLIQAGYYSFGLANEKRAKELEATFGCRMSPDIKQELLRCDISCKGGHSTVTDLQELLGCLYESQEEELVKEVMAQFKEISLHLNAVDVVPSSFCVKHCRNLQKMSLQVIKENLPENVTASESDAEVERSQDDQHMLPFWTDLCSIFGSNKDLMGLAINDSFLSASLVRILCEQIASDTCHLQRVVFKNISPADAHRNLCLALRGHKTVTYLTLQGNDQDDMFPALCEVLRHPECNLRYLGLVSCSATTQQWADLSLALEVNQSLTCVNLSDNELLDEGAKLLYTTLRHPKCFLQRLSLENCHLTEANCKDLAAVLVVSRELTHLCLAKNPIGNTGVKFLCEGLRYPECKLQTLVLWNCDITSDGCCDLTKLLQEKSSLLCLDLGLNHIGVKGMKFLCEALRKPLCNLRCLWLWGCSIPPFSCEDLCSALSCNQSLVTLDLGQNPLGSSGVKMLFETLTCSSGTLRTLRLKIDDFNDELNKLLEEIEEKNPQLIIDTEKHHPWAERPSSHDFMI
notes: LiTAA source protein
B6 was tested, and the “Number of positive CLLs” value was 6 and the “Number of positive CLLs (frequency [%])” value was 20.0%.

B7: endoplasmic reticulum protein 44 (protein, UniProt Q9BS26 30-406, looked up)
Endoplasmic reticulum …: EITSLDTENIDEILNNADVALVNFYADWCRFSQMLHPIFEEASDVIKEEFPNENQVVFARVDCDQHSDIAQRYRISKYPTLKLFRNGMMMKREYRGQRSVKALADYIRQQKSDPIQEIRDLAEITTLDRSKRNIIGYFEQKDSDNYRVFERVANILHDDCAFLSAFGDVSKPERYSGDNIIYKPPGHSAPDMVYLGAMTNFDVTYNWIQDKCVPLVREITFENGEELTEEGLPFLILFHMKEDTESLEIFQNEVARQLISEKGTINFLHADCDKFRHPLLHIQKTPADCPVIAIDSFRHMYVFGDFKDVLIPGKLKQFVFDLHSGKLHREFHHGPDPTDTAPGEQAQDVASSPPESSFQKLAPSEYRYTLLRDRDEL
notes: LiTAA source protein
In the case of B7, the “Number of positive CLLs” value is reported as 7 and the “Number of positive CLLs (frequency [%])” value is reported as 23.3%.

B8: elongator acetyltransferase complex subunit 3 (protein, UniProt Q9H9T3 1-547, looked up)
Elongator complex protein 3: MRQKRKGDLSPAELMMLTIGDVIKQLIEAHEQGKDIDLNKVKTKTAAKYGLSAQPRLVDIIAAVPPQYRKVLMPKLKAKPIRTASGIAVVAVMCKPHRCPHISFTGNICVYCPGGPDSDFEYSTQSYTGYEPTSMRAIRARYDPFLQTRHRIEQLKQLGHSVDKVEFIVMGGTFMALPEEYRDYFIRNLHDALSGHTSNNIYEAVKYSERSLTKCIGITIETRPDYCMKRHLSDMLTYGCTRLEIGVQSVYEDVARDTNRGHTVKAVCESFHLAKDSGFKVVAHMMPDLPNVGLERDIEQFTEFFENPAFRPDGLKLYPTLVIRGTGLYELWKSGRYKSYSPSDLVELVARILALVPPWTRVYRVQRDIPMPLVSSGVEHGNLRELALARMKDLGIQCRDVRTREVGIQEIHHKVRPYQVELVRRDYVANGGWETFLSYEDPDQDILIGLLRLRKCSEETFRFELGGGVSIVRELHVYGSVVPVSSRDPTKFQHQGFGMLLMEEAERIAREEHGSGKIAVISGVGTRNYYRKIGYRLQGPYMVKMLK
notes: LiTAA source protein
With B8 the “Number of positive CLLs” value was 7 and the “Number of positive CLLs (frequency [%])” value was 23.3%.

B9: DEAD (Asp-Glu-Ala-Asp) box polypeptide 46 (protein, UniProt Q7L014 2-1031, looked up)
Probable ATP-dependent RNA …: GRESRHYRKRSASRGRSGSRSRSRSPSDKRSKRGDDRRSRSRDRDRRRERSRSRDKRRSRSRDRKRLRRSRSRERDRSRERRRSRSRDRRRSRSRSRGRRSRSSSPGNKSKKTENRSRSKEKTDGGESSKEKKKDKDDKEDEKEKDAGNFDQNKLEEEMRKRKERVEKWREEQRKKAMENIGELKKEIEEMKQGKKWSLEDDDDDEDDPAEAEKEGNEMEGEELDPLDAYMEEVKEEVKKFNMRSVKGGGGNEKKSGPTVTKVVTVVTTKKAVVDSDKKKGELMENDQDAMEYSSEEEEVDLQTALTGYQTKQRKLLEPVDHGKIEYEPFRKNFYVEVPELAKMSQEEVNVFRLEMEGITVKGKGCPKPIKSWVQCGISMKILNSLKKHGYEKPTPIQTQAIPAIMSGRDLIGIAKTGSGKTIAFLLPMFRHIMDQRSLEEGEGPIAVIMTPTRELALQITKECKKFSKTLGLRVVCVYGGTGISEQIAELKRGAEIIVCTPGRMIDMLAANSGRVTNLRRVTYVVLDEADRMFDMGFEPQVMRIVDNVRPDRQTVMFSATFPRAMEALARRILSKPIEVQVGGRSVVCSDVEQQVIVIEEEKKFLKLLELLGHYQESGSVIIFVDKQEHADGLLKDLMRASYPCMSLHGGIDQYDRDSIINDFKNGTCKLLVATSVAARGLDVKHLILVVNYSCPNHYEDYVHRAGRTGRAGNKGYAYTFITEDQARYAGDIIKALELSGTAVPPDLEKLWSDFKDQQKAEGKIIKKSSGFSGKGFKFDETEQALANERKKLQKAALGLQDSDDEDAAVDIDEQIESMFNSKKRVKDMAAPGTSSVPAPTAGNAEKLEIAKRLALRINAQKNLGIESQDVMQQATNAILRGGTILAPTVSAKTIAEQLAEKINAKLNYVPLEKQEEERQDGGQNESFKRYEEELEINDFPQTARWKVTSKEALQRISEYSEAAITIRGTYFPPGKEPKEGERKIYLAIESANELAVQKAKAEITRLIKEELIRLQNSYQPTNKGRYKVL
notes: LiTAA source protein
B9 was tested, and the “Number of positive CLLs” value was 7 and the “Number of positive CLLs (frequency [%])” value was 23.3%.
